Results taken from publication PMC2702820, “Pyrin Modulates the Intracellular Distribution of PSTPIP1” (PLoS ONE, 2009).
Results are given in words; binding and its absence hold for the method and conditions named.

Target: Recombinant human PSTPIP1 protein expressed in E. coli (human) (UniProt O43586)
Experiment: reducing SDS-PAGE; recombinant PSTPIP1 from E. coli run in the presence of DTT, Coomassie stain; both purified

B1: Recombinant human PSTPIP1 protein expressed in E. coli (natural protein, UniProt O43586 1-416, looked up)
chain: MMPQLQFKDAFWCRDFTAHTGYEVLLQRLLDGRKMCKDMEELLRQRAQAEERYGKELVQIARKAGGQTEINSLRASFDSLKQQMENVGSSHIQLALTLREELRSLEEFRERQKEQRKKYEAVMDRVQKSKLSLYKKAMESKKTYEQKCRDADDAEQAFERISANGHQKQVEKSQNKARQCKDSATEAERVYRQSIAQLEKVRAEWEQEHRTTCEAFQLQEFDRLTILRNALWVHSNQLSMQCVKDDELYEEVRLTLEGCSIDADIDSFIQAKSTGTEPPAPVPYQNYYDREVTPLTSSPGIQPSCGMIKRFSGLLHGSPKTTSLAASAASTETLTPTPERNEGVYTAIAVQEIQGNPASPAQEYRALYDYTAQNPDELDLSAGDILEVILEGEDGWWTVERNGQRGFVPGSYLEKL
notes: PSTPIP1, human, recombinant; monomer runs at 48 kDa; the purification is not described, only that several steps of the recovery need DTT; also called recombinant PSTPIP1; source: E. coli (pHIS8 plasmid), recovered recombinant protein
Question: Which binding does the source give for B1 here?
Answer: The binding was “no binding (condition: in the presence of DTT)”.
